Results are given in words; binding and its absence hold for the method and conditions named. For some assays here: In cells and extracts the contact can be indirect. Some results given as binding are weak or reduced against the parent protein; the word gives no strength. Values belong to the substance of their own block, whether it stands above or below them.
Assays:
[1] = biological target: HA-tagged ZIC2 (zinc finger protein of the cerebellum 2) (UniProt O95409); assay: co-IP
FLAG-tagged ZIC2 = FLAG-tagged ZIC2 (UniProt O95409); assay: co-IP; purified FLAG-ZIC2 incubated with purified FLAG-PRC2 complex in binding buffer (20 mM HEPES pH 7.9, 150 mM NaCl, 1 mM EDTA, 4 mM MgCl2, 0.02% NP-40, 10% glycerol, 1 mg/ml BSA) for 90 min at 4°C; precipitated with anti-ZIC2 antibody or control IgG; blots for EZH2, SUZ12 and EED; both purified
[2] = biological target: enhancer of zeste homolog 2 (EZH2), endogenous in BCBL-1 cells (human (endogenous in BCBL-1)) (UniProt Q15910); assay: co-IP; endogenous proteins in BCBL-1 lysate; ZIC2 IP followed by EZH2 and SUZ12 blots, and EZH2 and SUZ12 IP followed by ZIC2 blot; control IgG; IP lysis buffer, 4°C
[3] = biological target: suppressor of zeste 12 homolog (SUZ12), endogenous in BCBL-1 cells (human (endogenous in BCBL-1)) (UniProt Q15022); assay: as above
[4] = biological target: ZIC2, endogenous in BCBL-1 cells (human (endogenous in BCBL-1)) (UniProt O95409); assay: as above

Amino acid sequences for entries named in this document (tags omitted).
UniProt O95409: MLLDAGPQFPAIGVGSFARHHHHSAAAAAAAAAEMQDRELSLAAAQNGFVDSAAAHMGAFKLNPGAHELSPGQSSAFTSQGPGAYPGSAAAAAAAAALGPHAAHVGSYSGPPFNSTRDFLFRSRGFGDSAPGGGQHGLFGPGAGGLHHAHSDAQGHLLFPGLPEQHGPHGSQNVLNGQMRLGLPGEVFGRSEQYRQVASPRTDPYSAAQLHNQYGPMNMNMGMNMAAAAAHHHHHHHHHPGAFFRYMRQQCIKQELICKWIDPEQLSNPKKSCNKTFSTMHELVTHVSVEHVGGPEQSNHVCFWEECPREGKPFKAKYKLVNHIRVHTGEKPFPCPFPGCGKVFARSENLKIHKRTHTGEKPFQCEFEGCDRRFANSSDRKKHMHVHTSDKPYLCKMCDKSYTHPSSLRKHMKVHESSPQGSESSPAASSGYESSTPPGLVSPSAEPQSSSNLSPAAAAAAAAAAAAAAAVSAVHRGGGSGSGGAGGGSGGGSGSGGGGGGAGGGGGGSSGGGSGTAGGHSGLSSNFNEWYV
UniProt Q15910: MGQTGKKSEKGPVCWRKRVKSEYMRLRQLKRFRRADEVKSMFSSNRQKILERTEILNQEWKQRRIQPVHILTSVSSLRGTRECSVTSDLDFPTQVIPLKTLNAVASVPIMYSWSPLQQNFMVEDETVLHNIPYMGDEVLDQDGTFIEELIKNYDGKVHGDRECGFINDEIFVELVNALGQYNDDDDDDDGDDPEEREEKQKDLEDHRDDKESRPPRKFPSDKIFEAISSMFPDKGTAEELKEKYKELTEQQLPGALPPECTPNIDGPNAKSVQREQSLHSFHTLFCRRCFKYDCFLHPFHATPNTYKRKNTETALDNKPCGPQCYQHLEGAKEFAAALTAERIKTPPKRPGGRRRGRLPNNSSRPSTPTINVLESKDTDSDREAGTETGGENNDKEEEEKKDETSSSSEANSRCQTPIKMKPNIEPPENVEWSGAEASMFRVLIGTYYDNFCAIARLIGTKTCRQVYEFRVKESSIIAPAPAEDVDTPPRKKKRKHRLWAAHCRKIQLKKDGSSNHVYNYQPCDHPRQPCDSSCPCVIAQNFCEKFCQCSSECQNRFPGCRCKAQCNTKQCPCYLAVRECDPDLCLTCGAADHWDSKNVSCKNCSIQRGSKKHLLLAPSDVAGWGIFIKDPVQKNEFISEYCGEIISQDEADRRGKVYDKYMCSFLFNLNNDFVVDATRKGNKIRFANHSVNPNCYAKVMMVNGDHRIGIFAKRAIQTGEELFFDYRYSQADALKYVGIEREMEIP
UniProt Q15022: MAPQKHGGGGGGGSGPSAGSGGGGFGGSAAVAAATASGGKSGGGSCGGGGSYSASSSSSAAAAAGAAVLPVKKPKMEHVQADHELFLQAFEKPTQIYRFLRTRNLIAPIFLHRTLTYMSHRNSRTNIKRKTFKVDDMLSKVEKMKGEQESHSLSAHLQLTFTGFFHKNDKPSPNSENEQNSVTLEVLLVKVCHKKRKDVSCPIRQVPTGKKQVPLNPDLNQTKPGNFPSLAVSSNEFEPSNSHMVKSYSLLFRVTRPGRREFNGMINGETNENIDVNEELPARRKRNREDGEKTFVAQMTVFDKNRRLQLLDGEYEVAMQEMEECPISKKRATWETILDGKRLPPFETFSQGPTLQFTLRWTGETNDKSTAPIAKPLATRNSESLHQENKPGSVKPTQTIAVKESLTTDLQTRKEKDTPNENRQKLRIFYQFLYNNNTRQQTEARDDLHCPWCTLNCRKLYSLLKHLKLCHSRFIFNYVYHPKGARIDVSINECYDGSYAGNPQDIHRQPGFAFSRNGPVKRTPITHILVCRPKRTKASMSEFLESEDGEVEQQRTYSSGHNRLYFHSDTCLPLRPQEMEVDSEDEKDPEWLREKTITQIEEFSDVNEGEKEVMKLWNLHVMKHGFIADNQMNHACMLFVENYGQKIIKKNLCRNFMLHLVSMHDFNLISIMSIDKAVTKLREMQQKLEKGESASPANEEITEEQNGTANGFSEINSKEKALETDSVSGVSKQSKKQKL
UniProt F5HCV3: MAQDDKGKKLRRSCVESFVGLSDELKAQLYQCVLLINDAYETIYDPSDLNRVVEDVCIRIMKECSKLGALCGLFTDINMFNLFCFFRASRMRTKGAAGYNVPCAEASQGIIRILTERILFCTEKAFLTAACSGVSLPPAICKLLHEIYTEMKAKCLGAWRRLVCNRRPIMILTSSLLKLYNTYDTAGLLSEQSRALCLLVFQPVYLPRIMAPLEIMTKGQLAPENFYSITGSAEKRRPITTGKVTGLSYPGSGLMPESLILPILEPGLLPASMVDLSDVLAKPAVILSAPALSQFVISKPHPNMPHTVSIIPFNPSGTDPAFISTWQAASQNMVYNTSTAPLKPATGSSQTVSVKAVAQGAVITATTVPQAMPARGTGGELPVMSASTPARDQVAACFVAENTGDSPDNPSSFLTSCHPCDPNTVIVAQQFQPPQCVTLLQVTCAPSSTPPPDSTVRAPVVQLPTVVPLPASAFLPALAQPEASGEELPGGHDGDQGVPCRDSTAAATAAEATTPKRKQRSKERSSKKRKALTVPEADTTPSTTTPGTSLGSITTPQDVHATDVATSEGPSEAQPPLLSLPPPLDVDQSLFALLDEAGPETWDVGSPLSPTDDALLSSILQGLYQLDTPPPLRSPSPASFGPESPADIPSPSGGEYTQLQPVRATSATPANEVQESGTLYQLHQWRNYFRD

Substance: FLAG-K-Rta (KSHV replication and transcription activator) (from UniProt F5HCV3 1-691)
binding [1]: binds

binding (FLAG-tagged ZIC2): binds
Substance: PRC2 complex (FLAG-EZH2, FLAG-SUZ12, and FLAG-EED) (from UniProt Q15910 1-746; Q15022 1-739; O75530 1-441)

binding [2]: binds
binding [3]: binds
Substance: ZIC2, endogenous in BCBL-1 cells (from UniProt O95409 1-532)

binding [4]: binds
Substance: suppressor of zeste 12 homolog (SUZ12), endogenous in BCBL-1 cells (from UniProt Q15022 1-739)

— paper PMC5640855, “ZIC2 Is Essential for Maintenance of Latency and Is a Target of an Immediate Early Protein during Kaposi's Sarcoma-Associated Herpesvirus Lytic Reactivation” (Journal of Virology, 2017)
